Assay results from patent US5888993A, “Vanadium compounds in the treatment of elevated blood sugar levels” (The University of British Columbia, priority 1997, dated 1999).
At least one structure is not confirmed: it was looked up by name or label, or the drawing left a doubt.

Tested on: diabetic rats
Assay: Comparison of BMOV and vanadyl kojate, acute time course of plasma glucose, rats made diabetic with STZ
Format: in vivo, rat
Method: Using BMOV and Vanadyl Kojate as prepared in Examples 1 and 2 above, the relative efficacy of the two compounds was assessed using rats made diabetic with STZ. Again the animals were divided into responder and non-responder groups. For a 0.063 mmol V/kg ip injection, BMOV gave a 50:50 split between responder and non-responder groups whereas for vanadyl kojate the ratio was 60:40. On oral gavage of 0.55 mmol V/kg the responder:non-responder ratios were 50:50 and 57:43 respectively (n=10). However over a 12 day test period, there was a 100% response in terms of blood glucose reduction for diabetic rats receiving vanadyl kojate orally.

[1] = i.p. injection, 0.063 mmol V/kg
[2] = oral gavage, 0.55 mmol V/kg (n=10)

Structure (SMILES) | responder:non-responder ratio [1] | responder:non-responder ratio [2]
Cc1occc(=O)c1[O-].Cc1occc(=O)c1[O-].[O]=[V+2] [BMOV, Bis(maltolato)oxovanadium(IV)] | 50:50 | 50:50
[O]=[V-2]12([O]C3=COC(CO)=CC3=[O+]1)[O]C1=COC(CO)=CC1=[O+]2 [vanadyl kojate, Bis(kojato)oxovanadium(IV)] | 60:40 | 57:43
